The supplement of paper PMC5949888
± gives the standard deviation of the averaged measurements. Most values lie at the floor of the assay. Slopes are relative: functional sequences can read slightly below zero.

Test system: Saccharomyces cerevisiae PS128 hsf1 delta, HSF1(1-493) fusion
Assay: growth estimate (transactivation domain function in HSF1 fusion, heat-shock survival) (a.u. (slope of normalised read count over time)); higher = stronger growth at 37°C, i.e. more transactivation activity
Conditions: library: random library

Row | Substance | growth estimate
1 | LPRETE | < -0.25
2 | LPRP | < -0.25
3 | LPRWV | < -0.25
4 | LPTFRW | < -0.25
5 | LPTGSNASTTFASFGAWSAF | < -0.25
6 | LPTKQSSAGARGGD | < -0.25
7 | LPTTWNP | < -0.25
8 | LPTYSKEIRPLVQNALRAVT | < -0.25
9 | LPVGAV | < -0.25
10 | LPVGVSEGSPILTSLYRPGV | -0.245
11 | LPVQAPSVADVVEVRGSTLT | < -0.25
12 | LPVTMAN | -0.173
13 | LPVTRKGRISLYLNLRPRRD | < -0.25
14 | LPVTTRRHARVTTLTTYLVG | < -0.25
15 | LPYG | < -0.253
16 | LPYKCNPTPELIVAETAVFH | < -0.25
17 | LQAPT | < -0.25
18 | LQAWPNSTSVFSLKSGGKSK | < -0.25
19 | LQDWVPGRTIRG | < -0.25
20 | LQGLLVELAN | < -0.25
21 | LQGSRQIPALREFTCPSTNC | < -0.25
22 | LQGVGRTWVLLRQHWWYPRE | < -0.25
23 | LQGVYQYLLLNALRGEGRPG | < -0.25
24 | LQIFLVKKSRHKILNRVGKG | < -0.25
25 | LQIGYFKQR | < -0.25

Row | Substance | growth estimate
26 | LQKSTGQTAGHILALCCAGR | < -0.25
27 | LQLK | < -0.25
28 | LQLNFTSELITRKDSSVVYE | < -0.25
29 | LQLQSAPRQKHTVTARRGTT | < -0.25
30 | LQLRIIITGLGVTGTP | < -0.25
31 | LQMA | < -0.25
32 | LQMAQI | < -0.25
33 | LQMYQHNKFNG | < -0.25
34 | LQNAFGGSTGHKGAVSPC | < -0.25
35 | LQNTRSWKRHDIVFVLKPST | < -0.25
36 | LQRGPGH | < -0.25
37 | LQRPI | < -0.25
38 | LQRRVAL | < -0.25
39 | LQRSSMGRNIGYR | < -0.25
40 | LQSPTIRVDYALFRGGTLPT | < -0.25
41 | LQTCYCQNAISGDRYVSSFD | < -0.25
42 | LQVIP | -0.243
43 | LQVQPVVRAVRPSGLEGDWQ | < -0.25
44 | LQVSRIGTGQTACLLGTTGR | < -0.25
45 | LQWGELRSRKGLNRSGHHVR | < -0.25
46 | LQWRFSVIGTRCD | < -0.25
47 | LQYKVRWGLKLRCGEIVTIR | < -0.25
48 | LQYPRGEPFLLLR | < -0.25
49 | LRAAVGIARVEPACPPVVSW | < -0.25
50 | LRAIEGNSK | < -0.25

Row | Substance | growth estimate
51 | LRCRTYVARPRKSYFGRRVR | < -0.25
52 | LRCVFSENRDR | < -0.25
53 | LRD | < -0.25
54 | LRDRVQGSGPNNHEACAW | < -0.25
55 | LREFVVPRRSRNSKVSLQKS | < -0.25
56 | LREGHCSLIEKVCTLRRAAR | < -0.25
57 | LREPFPTILGAAAWYQYVSG | < -0.25
58 | LRERVRSEAHTTRVGPCEYK | < -0.25
59 | LREVRIAPCSGFLAEIPGVH | < -0.25
60 | LRFSFFTVHVRSRLIICVAR | < -0.25
61 | LRFYLVGSRARLFDRCISPN | < -0.25
62 | LRGFPHYPQ | < -0.25
63 | LRGGRPVSTRYVVYTGDRLA | < -0.25
64 | LRGKILKYHVKICSKCQVPY | < -0.25
65 | LRGR | < -0.25
66 | LRGRSSLLRINGQ | < -0.25
67 | LRGYHYGSTGSRYAPALGGS | < -0.25
68 | LRGYYNPRFKVASNA | < -0.25
69 | LRHPGWSDAALGPIGVSDFT | < -0.25
70 | LRHTRGGSGMSLGHVVKGRP | < -0.25
71 | LRIERVQGGDVRVRERYDHT | < -0.25
72 | LRIPATNDDDQT | < -0.25
73 | LRIPSASRKLLVCVFACAGP | -0.216
74 | LRIQTNS | < -0.25
75 | LRIQVLSED | < -0.25

Row | Substance | growth estimate
76 | LRLGLFVTGREFRWYWTSPD | < -0.25
77 | LRLIRVRKWAR | < -0.25
78 | LRLR | -0.241 ± 0.013
79 | LRLTSMDARHLCETDVGQ | < -0.25
80 | LRMAGKSEFVRACWGH | < -0.25
81 | LRNQRSCEGTVQARCREVSH | < -0.25
82 | LRPLRLEGMCAAWVTKGYIV | < -0.25
83 | LRPLSLSFNEGPGLNQ | < -0.25
84 | LRPPEYPQSLCLFIAERLTE | < -0.25
85 | LRPQGYVYHCAYNFRGLNGL | < -0.25
86 | LRPSTMAACSEYAYSRYLGR | < -0.25
87 | LRQAIR | -0.196
88 | LRQNTAKSTPRN | < -0.25
89 | LRQQPAVNPRETNLCSIYTS | < -0.25
90 | LRRAYGTLTKNVSLRIFRGR | < -0.25
91 | LRRDLELMAERCPPLGFCPF | < -0.25
92 | LRRDWEGSRSGCYSEGLSRS | < -0.25
93 | LRRGCGSPISYATLATKFLA | < -0.25
94 | LRRH | < -0.25
95 | LRRKVILRLSAESFDFPTFY | < -0.25
96 | LRRPQPTKVCSWMLVTSRFN | < -0.25
97 | LRRRGPDRAVKRHSFNNMLH | < -0.25
98 | LRRS | < -0.25
99 | LRRSHVDFFVSESPRVPTRC | < -0.25
100 | LRRSNLMFMCGNRLLTLTPV | < -0.25

Row | Substance | growth estimate
101 | LRRTMEINAAGKVRKRVHGR | < -0.25
102 | LRRW | < -0.25
103 | LRSEGFGLRVHGVIEY | < -0.25
104 | LRSGGQGTHHSPGRWLKGRV | < -0.25
105 | LRSIRYP | < -0.25
106 | LRSKDKVVTGLVAIPLALGR | < -0.25
107 | LRSLFETRDSVNEWILPYTT | < -0.25
108 | LRSLKVLLYRGETRGPGLAP | < -0.25
109 | LRSPGATGIMG | -0.243
110 | LRSRLRGPHQCPGLTFWIVS | < -0.25
111 | LRSS | < -0.25
112 | LRSTIYPDEFHSRLDRPTSG | < -0.25
113 | LRT | < -0.25
114 | LRTPGRDSYYSNPTIVFCHF | < -0.25
115 | LRTQLSRRPLVPVFLRRWFH | < -0.25
116 | LRTY | < -0.25
117 | LRVHWR | < -0.25
118 | LRVMEY | < -0.25
119 | LRVPEQIKPSLSTVLGKCLV | < -0.25
120 | LRVQLQKISAGVLTYYRNLL | < -0.25
121 | LRVSHVK | < -0.25
122 | LRVTTGGPWGS | < -0.25
123 | LRVVRVSWRGHTPGSSRNAM | < -0.25
124 | LRVVVIGSSKCASCNLIVIA | -0.25
125 | LRVWNYCPDRPAKRY | < -0.25

Row | Substance | growth estimate
126 | LRVWSRRRRFRYGTQLYLSW | < -0.25
127 | LRWKWQQCPETDLIMYTSRH | < -0.25
128 | LRWTYQRYVCRRDINSHKNR | < -0.25
129 | LRYPFRVENRTELREVCTFK | < -0.25
130 | LRYRA | < -0.25
131 | LSALRSLTSGVFVQRAALAQ | < -0.25
132 | LSAQVKCRKRGLLYGSQRYQ | -0.231
133 | LSASDHVAFITTIRSLTAKW | < -0.25
134 | LSASFWDSSDYNTGGVHTKD | < -0.25
135 | LSATRPRGCGGPPGWPEGPH | -0.231
136 | LSCFR | < -0.25
137 | LSCLPFVDYYLVLQVFVHVL | < -0.25
138 | LSCP | -0.191
139 | LSCYLWIVRSSALRFLHNLV | < -0.25
140 | LSDRGGGS | < -0.25
141 | LSDRRSLFLNRCETDSQIQP | < -0.25
142 | LSE | < -0.25
143 | LSEKAPSPLLRCYDHALSSD | < -0.25
144 | LSERPF | < -0.25
145 | LSERSST | < -0.25
146 | LSFCFGAIATGAPGGSPVVD | < -0.25
147 | LSGGDDVPLWVRLSDTSTEV | -0.173
148 | LSGKSLEAIHDPTGNVVWEL | < -0.25
149 | LSGMTGACVLQTR | < -0.25
150 | LSGNYGGLGALTDQADGYYP | < -0.25

Entries 133 through 135, quoted:
Row | Substance | growth estimate
133 | LSASDHVAFITTIRSLTAKW | < -0.25
134 | LSASFWDSSDYNTGGVHTKD | < -0.25
135 | LSATRPRGCGGPPGWPEGPH | -0.231

More entries.

Row | Substance | growth estimate
151 | LSGTGSIG | < -0.25
152 | LSGY | < -0.25
153 | LSHLRGVR | < -0.25
154 | LSHP | < -0.25
155 | LSHVSRSMKRALTECTPVST | < -0.25
156 | LSIESTVVSRLPGSKR | < -0.25
157 | LSIFTSRRGNIGPWALFEEK | < -0.25
158 | LSIIGGHFIGDSALLMTHHS | < -0.25
159 | LSISKHVGYYEGDHEDDSSP | < -0.25
160 | LSITGE | < -0.25
161 | LSIVCNGNGIGARNASSGVR | < -0.25
162 | LSIWRVPCQERNA | < -0.25
163 | LSKGHEITFWLFSRWSHSCA | < -0.25
164 | LSLRGKKLHGNPPCSRDRCA | < -0.25
165 | LSLSQ | < -0.25
166 | LSLVRSFAFVLVSYRRRFG | < -0.25
167 | LSLVYGRRKRSIRKFTSLVV | < -0.25
168 | LSMGWSRP | < -0.25
169 | LSMRIPRSVGRHSR | < -0.25
170 | LSNPSLLDHLAPNLMVYLRP | < -0.25
171 | LSNSEEGHHPER | < -0.25
172 | LSNSRYSL | < -0.25
173 | LSP | < -0.25
174 | LSPDQPWGGRSVYHA | < -0.25
175 | LSPKIPEHKSRRLTSIDGLI | < -0.25

4 entries from above, set out differently.
Row,Substance,growth estimate
65,LRGR,< -0.25
66,LRGRSSLLRINGQ,< -0.25
67,LRGYHYGSTGSRYAPALGGS,< -0.25
68,LRGYYNPRFKVASNA,< -0.25

Remaining list, next part

Row | Substance | growth estimate
176 | LSPQMGARAQQRDAPAAYVC | < -0.25
177 | LSPRL | < -0.25
178 | LSPSVLAIRRWARFKIYP | < -0.25
179 | LSQPGYKA | < -0.25
180 | LSQSSGMHPRFLVFTLDRAP | < -0.25
181 | LSRCQIGGSLSGDLRVRHRH | < -0.25
182 | LSRKICFRVKSCSGT | < -0.25
183 | LSRLFLDWTCTTV | < -0.25
184 | LSRLP | < -0.25
185 | LSRLSCE | < -0.25
186 | LSRPL | < -0.25
187 | LSRRCSAWMAYSLPFSSFGG | < -0.25
188 | LSRREGTYFVVNTSTWQAYS | -0.245
189 | LSRRGFASKFRVWEGGVTRW | < -0.25
190 | LSSAHRSIRERCARLTSGYT | < -0.25
191 | LSSGFFSAGWNTVGKGI | < -0.25
192 | LSSKKVTESIALRSVWGQAN | < -0.25
193 | LSSLGPHRH | < -0.25
194 | LSSLGSARYIAILTCPNIPL | < -0.25
195 | LSSSFSATYTVGLLGPSRTD | < -0.25
196 | LSSVIPSACGTAGGREIERR | < -0.25
197 | LSTARSGLPTKSPVLGKPF | < -0.25
